In patent US12714684B2 (ALPARIS, S.A. DE C.V., priority 2019, dated 2026):
At least one compound was matched to its structure with a doubt left.

What was measured:
[1] = system: Complete Freund's Adjuvant (CFA)-induced inflammation; assay: Complete Freund's adjuvant (CFA)-induced inflammation model, volume displacement by plethysmometer; type: in vivo, Sprague-Dawley male rats; conditions: oral, fixed dose 100 mg/kg
Method: (§1) Preclinical studies were performed in rats with a chronic inflammation model using complete Freund's adjuvant (CFA) given intra-articularly (AIA), as well as an acute model induced by carrageenan (CAR) given in the subplantar region.
(§2) In these models, the inflammation induced by the complete Freund's adjuvant and carrageenan is determined by the volume displacement measured with a plethysmometer.

[2] = system: carrageenan (CAR)-induced inflammation; assay: Carrageenan (CAR)-induced subplantar edema model, volume displacement by plethysmometer; type: in vivo, rats; conditions: oral, fixed dose 100 mg/kg
Method: The carrageenan (CAR)-induced subplantar edema model was used in the evaluation of the acute effect.
as §1, §2

## Cc1ccc(-c2cc(C(F)(F)F)nn2-c2ccc(S(N)(=O)=O)cc2)cc1 [celecoxib]
[1]
  Reversal of inflammation induced by complete Freund's adjuvant: exhibited an anti-inflammatory effect
[2]
  Reversal of inflammation induced by carrageenan: exhibited an anti-inflammatory effect
